Experimental data from US20250290117A1, “MOLECULAR PHENOTYPIC ANTIMICROBIAL SUSCEPTIBILITY TESTING” (priority 2024, published 2025).
At least one structure is not confirmed: it was looked up by name or label, or the drawing left a doubt.

Tested on: pathogens of clinical samples
Assay: Molecular phenotypic antimicrobial susceptibility test of clinical samples, extraction DNA purification step prior to PCR (Table 6)
Format: cell-based
Conditions: M. morganii, clinical sample of r70-r84, Ct Control Avg 27.053
Protocol: Detection of Molecular Phenotypic Antimicrobial Susceptibility. Disclosed herein are the methods for the detection of phenotypic antimicrobial susceptibility via molecular methods. The present invention describes how a specimen 100 with a known microbial load is incubated and then exposed to a panel of antimicrobial agents to determine sensitivity (prevention of growth) or resistance (allowance of growth) to the specific antimicrobial agents tested utilizing molecular methods.
Sample Collection. Specimens 100 are collected from patients using sterile collection processes that are employed in routine clinical care. Specimens are transported to the testing facility in boric acid preservative.
Preparation of the Specimens for Testing. […]
Preparation of Antimicrobial Susceptibility Testing Plates. […] The number and types of antimicrobials utilized can be customized based on the infection source, pathogen detected, patient-specific factors such as allergies or other health conditions (e.g., chronic kidney disease or concurrent medication use), or healthcare provider preferences such as antimicrobial availability or cost. […]
Nucleic Acid Amplification of Antimicrobial Agent Exposed Pathogens. […] Next, the specimen may undergo a polymerase chain reaction (PCR) testing protocol, whereby a semi-quantitative PCR method is utilized. […]

CN(C)[C@@H]1C(O)=C(C(N)=O)C(=O)[C@@]2(O)C(O)=C3C(=O)c4c(O)cccc4[C@@](C)(O)[C@H]3C[C@@H]12 [Tetracycline]
Ct: Undet
